Assay results taken from patent US20050053985A1.
No constants are given. Whether binding was seen depends on the method and setting. In cells and extracts the contact can be indirect. Some entries that bind do so weakly or less than the wild type.

Legend:
[1] = molecular target: T1, HsClp1 (human) (UniProt Q92989); assay: co-purification with tagged subunits
T1 sequence (looked up): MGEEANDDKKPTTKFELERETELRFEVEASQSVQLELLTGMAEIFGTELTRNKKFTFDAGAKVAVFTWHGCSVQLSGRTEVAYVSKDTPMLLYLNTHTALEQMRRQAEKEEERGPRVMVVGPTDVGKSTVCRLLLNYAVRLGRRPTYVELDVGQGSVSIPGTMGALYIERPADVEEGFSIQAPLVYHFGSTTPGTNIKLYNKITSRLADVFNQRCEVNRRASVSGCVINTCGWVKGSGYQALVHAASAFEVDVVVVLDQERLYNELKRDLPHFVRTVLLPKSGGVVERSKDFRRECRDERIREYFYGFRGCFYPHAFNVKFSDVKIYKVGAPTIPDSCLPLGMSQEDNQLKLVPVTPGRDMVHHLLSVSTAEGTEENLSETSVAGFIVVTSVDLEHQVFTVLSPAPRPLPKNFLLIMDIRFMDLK

[2] = molecular target: T2, CstF64 (64 kD subunit 2) (human) (UniProt P33240); assay: co-purification with His-Flag-tagged subunits, Western blot
T2 sequence (looked up): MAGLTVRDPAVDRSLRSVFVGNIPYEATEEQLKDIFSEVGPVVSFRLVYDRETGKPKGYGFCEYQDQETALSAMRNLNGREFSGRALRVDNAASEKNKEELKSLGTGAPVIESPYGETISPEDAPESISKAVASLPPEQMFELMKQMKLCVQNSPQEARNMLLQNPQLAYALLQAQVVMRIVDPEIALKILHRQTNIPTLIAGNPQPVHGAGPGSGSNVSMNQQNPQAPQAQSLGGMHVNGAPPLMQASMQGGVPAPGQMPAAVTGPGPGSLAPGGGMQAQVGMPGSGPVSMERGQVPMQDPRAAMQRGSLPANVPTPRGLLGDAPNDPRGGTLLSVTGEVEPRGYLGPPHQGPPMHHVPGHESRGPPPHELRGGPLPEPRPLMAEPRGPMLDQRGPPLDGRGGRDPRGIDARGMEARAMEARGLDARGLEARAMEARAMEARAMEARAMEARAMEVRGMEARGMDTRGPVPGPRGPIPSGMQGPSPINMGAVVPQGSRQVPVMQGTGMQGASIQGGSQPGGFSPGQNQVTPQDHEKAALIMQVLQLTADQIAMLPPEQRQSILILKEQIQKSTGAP

[3] = molecular target: T3, Symplekin (human) (UniProt Q92797); assay: as above
T3 sequence (looked up): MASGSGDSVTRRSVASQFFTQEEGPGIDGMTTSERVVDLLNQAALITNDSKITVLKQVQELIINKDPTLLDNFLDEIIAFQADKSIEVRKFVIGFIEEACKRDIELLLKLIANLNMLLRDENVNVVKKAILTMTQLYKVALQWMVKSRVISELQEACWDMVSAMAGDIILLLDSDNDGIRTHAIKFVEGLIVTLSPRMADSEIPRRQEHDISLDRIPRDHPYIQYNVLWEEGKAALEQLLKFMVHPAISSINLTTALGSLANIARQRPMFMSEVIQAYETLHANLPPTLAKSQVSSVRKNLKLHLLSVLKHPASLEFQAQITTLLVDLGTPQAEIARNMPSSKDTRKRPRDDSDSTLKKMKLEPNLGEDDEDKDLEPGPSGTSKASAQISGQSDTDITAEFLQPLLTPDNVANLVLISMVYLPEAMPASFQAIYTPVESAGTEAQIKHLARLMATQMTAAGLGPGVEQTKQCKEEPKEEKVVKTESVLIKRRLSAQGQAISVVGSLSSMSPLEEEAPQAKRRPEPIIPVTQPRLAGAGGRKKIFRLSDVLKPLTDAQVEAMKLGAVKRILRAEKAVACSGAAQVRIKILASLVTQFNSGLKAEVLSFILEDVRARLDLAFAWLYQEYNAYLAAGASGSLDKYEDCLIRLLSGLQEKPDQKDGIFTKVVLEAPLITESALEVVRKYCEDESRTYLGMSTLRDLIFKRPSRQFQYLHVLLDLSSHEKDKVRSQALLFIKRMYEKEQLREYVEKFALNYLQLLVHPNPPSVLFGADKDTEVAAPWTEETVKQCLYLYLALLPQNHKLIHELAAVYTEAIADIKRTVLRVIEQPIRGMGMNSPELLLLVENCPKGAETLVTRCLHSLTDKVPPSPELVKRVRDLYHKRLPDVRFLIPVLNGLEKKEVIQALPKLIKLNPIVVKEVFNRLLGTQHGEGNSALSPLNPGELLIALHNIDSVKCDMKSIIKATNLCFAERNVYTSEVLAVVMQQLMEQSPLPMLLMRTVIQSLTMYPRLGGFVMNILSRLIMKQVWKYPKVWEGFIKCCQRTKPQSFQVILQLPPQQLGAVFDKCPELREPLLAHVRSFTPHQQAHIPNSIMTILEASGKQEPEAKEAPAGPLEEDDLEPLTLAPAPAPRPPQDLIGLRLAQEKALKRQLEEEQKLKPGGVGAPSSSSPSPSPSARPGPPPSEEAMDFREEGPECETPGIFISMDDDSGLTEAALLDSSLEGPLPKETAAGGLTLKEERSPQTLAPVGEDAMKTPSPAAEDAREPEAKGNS

[4] = molecular target: T1, HsClp1 (human); assay: co-purification (anti-Flag then Ni beads), gel electrophoresis
[5] = molecular target: T4, HsSen15 (human) (UniProt Q8WW01); assay: as above
T4 sequence (looked up): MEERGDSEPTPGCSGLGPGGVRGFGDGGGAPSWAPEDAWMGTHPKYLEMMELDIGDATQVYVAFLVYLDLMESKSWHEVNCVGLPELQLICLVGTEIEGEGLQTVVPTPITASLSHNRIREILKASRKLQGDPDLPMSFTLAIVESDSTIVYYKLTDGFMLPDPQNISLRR

[6] = molecular target: CPSF30 (30 kD factor 4) (human) (UniProt O95639); assay: co-purification (anti-Flag then Ni beads), SDS-PAGE, Western blot
[7] = molecular target: T2, CstF64 (64 kD subunit 2) (human); assay: as above
[8] = molecular target: T3, Symplekin (human); assay: as above
[9] = molecular target: T4, HsSen15 (human); assay: co-purification (anti-Flag then Ni beads), SDS-PAGE, silver staining
[10] = molecular target: T5, HsSen34 (human) (UniProt Q9BSV6); assay: as above
T5 sequence (looked up): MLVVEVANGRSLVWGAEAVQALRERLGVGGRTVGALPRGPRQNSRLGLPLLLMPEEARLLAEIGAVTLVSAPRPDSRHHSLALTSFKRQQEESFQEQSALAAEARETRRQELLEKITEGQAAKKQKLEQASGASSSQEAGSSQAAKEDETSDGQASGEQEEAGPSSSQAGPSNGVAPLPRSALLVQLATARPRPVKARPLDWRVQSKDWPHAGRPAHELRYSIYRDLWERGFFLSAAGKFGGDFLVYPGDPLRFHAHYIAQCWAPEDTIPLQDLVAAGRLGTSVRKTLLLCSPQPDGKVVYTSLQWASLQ

[11] = molecular target: T4, HsSen15 (human); assay: co-purification (anti-Flag then Ni beads), SDS-PAGE, silver staining, peptide sequencing
[12] = molecular target: T1, HsClp1 (human); assay: co-purification with the His-Flag-tagged bait from stable 293 cells (anti-Flag beads, then Ni beads); SDS-PAGE, silver staining
[13] = molecular target: T4, HsSen15 (human); assay: as above
[14] = molecular target: T5, HsSen34 (human); assay: as above
[15] = molecular target: T6, HsSen54 (human) (UniProt Q7Z6J9); assay: as above
T6 sequence (looked up): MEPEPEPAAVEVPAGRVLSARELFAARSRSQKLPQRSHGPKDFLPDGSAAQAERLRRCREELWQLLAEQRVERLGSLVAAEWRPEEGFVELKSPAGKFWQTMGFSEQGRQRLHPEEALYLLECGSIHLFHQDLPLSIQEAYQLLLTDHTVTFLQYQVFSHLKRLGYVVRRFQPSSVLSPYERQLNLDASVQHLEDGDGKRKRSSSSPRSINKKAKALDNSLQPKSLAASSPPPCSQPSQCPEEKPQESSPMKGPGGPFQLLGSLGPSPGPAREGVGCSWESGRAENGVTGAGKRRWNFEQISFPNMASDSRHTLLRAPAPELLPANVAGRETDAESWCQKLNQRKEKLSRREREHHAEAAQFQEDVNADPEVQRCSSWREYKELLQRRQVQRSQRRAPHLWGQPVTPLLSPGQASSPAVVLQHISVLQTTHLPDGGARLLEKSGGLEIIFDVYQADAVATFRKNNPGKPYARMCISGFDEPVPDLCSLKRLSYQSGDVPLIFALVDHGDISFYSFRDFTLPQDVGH

[16] = molecular target: T2, CstF64 (64 kD subunit 2) (human); assay: co-purification with the His-Flag-tagged bait from stable 293 cells (anti-Flag beads, then Ni beads); SDS-PAGE, Western blot with anti-CstF64 antibody
[17] = molecular target: T3, Symplekin (human); assay: co-purification with the His-Flag-tagged bait from stable 293 cells (anti-Flag beads, then Ni beads); SDS-PAGE, Western blot with anti-Symplekin antibody
[18] = molecular target: CPSF30 (30 kD factor 4) (human) (UniProt O95639); assay: co-purification with the His-Flag-tagged bait from stable 293 cells (anti-Flag beads, then Ni beads); SDS-PAGE, Western blot with anti-CPSF30 antibody
[19] = molecular target: T7, HsSen2 (human) (UniProt Q8NCE0); assay: co-purification (anti-Flag then Ni beads), SDS-PAGE, silver staining
T7 sequence (looked up): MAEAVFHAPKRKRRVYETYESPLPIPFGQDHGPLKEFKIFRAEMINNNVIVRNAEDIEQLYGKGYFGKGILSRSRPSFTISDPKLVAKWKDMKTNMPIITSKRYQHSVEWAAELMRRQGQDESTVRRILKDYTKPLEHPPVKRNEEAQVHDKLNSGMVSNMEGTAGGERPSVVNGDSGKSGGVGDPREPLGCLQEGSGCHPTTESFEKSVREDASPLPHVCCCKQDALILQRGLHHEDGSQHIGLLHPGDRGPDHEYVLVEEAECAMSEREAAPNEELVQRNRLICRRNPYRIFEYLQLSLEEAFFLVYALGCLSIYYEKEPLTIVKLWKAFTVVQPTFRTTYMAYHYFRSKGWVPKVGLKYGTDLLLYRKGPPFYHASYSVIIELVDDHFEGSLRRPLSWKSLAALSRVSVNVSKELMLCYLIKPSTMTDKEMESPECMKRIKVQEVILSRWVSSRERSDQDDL

[20] = molecular target: T7, HsSen2 (human); assay: co-purification with the His-Flag-tagged bait from stable 293 cells (anti-Flag beads, then Ni beads); SDS-PAGE, silver staining

Measured: binding

His-Flag-HsSen2 (from UniProt Q8NCE0 1-465)
not listed: [18] | [19] | [20]
binds: all other assays above

His-Flag-HsSen2deltaEx8 (from UniProt Q8NCE0 1-465)
binds: [2] | [3] | [6] | [7] | [8] | [15] | [18] | [16] | [17]

His-Flag-HsSen34 (from UniProt Q9BSV6 1-310)
binds: [5] | [6] | [7] | [8] | [9] | [11] | [13] | [16] | [17]

His-Flag-HsSen15 (from UniProt Q8WW01 1-171)
binds: [6] | [7] | [8] | [19] | [10] | [12] | [20] | [14] | [16] | [17]
